Protein sequences can lack the tags named with them.
Tested on: T1, R2 protein (R2Bm reverse transcriptase/endonuclease) (Bombyx mori)
T1 sequence (limits assumed): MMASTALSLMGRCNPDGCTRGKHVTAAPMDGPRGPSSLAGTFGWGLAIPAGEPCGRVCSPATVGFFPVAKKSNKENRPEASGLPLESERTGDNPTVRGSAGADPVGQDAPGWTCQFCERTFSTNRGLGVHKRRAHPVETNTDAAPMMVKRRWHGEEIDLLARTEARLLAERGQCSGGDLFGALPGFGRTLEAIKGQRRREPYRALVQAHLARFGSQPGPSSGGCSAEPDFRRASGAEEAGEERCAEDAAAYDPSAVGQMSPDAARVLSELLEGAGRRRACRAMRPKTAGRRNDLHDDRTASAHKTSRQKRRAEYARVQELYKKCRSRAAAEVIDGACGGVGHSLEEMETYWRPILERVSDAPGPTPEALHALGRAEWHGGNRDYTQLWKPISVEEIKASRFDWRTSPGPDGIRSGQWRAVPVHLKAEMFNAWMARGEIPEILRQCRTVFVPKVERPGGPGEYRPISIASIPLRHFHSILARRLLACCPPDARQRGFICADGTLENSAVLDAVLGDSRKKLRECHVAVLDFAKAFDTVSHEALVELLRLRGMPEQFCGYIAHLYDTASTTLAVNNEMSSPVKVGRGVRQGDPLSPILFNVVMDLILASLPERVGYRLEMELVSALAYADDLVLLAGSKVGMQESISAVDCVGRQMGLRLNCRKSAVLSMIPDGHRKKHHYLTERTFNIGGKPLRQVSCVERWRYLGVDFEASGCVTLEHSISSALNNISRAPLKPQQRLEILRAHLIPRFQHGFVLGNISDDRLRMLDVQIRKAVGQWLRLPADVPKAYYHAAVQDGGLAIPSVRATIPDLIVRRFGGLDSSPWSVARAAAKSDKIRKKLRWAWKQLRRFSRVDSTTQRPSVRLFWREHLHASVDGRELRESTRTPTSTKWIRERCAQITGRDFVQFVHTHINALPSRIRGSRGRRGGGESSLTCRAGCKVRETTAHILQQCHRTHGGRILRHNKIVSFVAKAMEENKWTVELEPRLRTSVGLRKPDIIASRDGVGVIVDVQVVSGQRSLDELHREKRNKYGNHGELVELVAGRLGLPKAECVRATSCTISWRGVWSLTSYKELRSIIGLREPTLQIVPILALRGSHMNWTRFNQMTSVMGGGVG
Test: activity assay
Conditions: acceptor of template jump from R2 RNA; did not support R2 RNA shift in EMSA (FIG. 8A lane 3); purified recombinant protein; single-stranded DNA

Sequence: CGACGGCCAGTGCCAAGCTTGCATGCCTGCAGGTCGACTCTAGAGGATCC [AB.17 50 nt ssDNA]
- activity on this sequence: active
